# This is one part of the list.
# The chains behind the UniProt entries cited, without tags or fusion partners. Where a name states a change or a piece, a line headed by the entry shows the natural chain unless it says otherwise.
# UniProt Q13952: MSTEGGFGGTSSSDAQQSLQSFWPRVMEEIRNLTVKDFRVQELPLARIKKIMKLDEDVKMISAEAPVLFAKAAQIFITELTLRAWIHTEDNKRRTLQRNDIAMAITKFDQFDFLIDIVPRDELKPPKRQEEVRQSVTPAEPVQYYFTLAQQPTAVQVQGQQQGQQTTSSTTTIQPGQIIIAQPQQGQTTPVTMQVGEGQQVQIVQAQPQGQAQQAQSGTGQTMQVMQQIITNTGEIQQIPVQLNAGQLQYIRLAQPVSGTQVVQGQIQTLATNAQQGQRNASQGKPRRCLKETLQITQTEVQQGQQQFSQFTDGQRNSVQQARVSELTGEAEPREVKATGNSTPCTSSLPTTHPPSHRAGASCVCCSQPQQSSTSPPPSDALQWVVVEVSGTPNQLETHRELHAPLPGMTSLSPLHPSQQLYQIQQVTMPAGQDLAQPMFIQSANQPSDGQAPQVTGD
# UniProt Q16656: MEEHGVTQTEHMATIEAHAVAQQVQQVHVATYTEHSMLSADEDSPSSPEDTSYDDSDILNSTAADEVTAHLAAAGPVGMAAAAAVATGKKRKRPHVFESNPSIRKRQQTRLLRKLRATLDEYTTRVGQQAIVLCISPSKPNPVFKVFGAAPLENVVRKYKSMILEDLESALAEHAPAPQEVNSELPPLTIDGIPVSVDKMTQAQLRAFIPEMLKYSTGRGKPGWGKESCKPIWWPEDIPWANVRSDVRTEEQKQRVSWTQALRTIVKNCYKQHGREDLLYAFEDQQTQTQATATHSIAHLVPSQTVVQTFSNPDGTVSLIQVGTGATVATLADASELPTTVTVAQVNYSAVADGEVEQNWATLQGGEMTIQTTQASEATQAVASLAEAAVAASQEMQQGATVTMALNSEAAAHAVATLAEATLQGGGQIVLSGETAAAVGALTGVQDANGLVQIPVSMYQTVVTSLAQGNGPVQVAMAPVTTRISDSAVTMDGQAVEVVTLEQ
# UniProt P22392, whole entry, looked up: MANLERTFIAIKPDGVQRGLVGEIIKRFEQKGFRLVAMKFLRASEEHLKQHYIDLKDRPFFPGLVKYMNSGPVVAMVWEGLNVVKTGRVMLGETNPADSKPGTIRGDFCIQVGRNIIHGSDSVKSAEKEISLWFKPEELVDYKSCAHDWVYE
# UniProt Q9UHY1: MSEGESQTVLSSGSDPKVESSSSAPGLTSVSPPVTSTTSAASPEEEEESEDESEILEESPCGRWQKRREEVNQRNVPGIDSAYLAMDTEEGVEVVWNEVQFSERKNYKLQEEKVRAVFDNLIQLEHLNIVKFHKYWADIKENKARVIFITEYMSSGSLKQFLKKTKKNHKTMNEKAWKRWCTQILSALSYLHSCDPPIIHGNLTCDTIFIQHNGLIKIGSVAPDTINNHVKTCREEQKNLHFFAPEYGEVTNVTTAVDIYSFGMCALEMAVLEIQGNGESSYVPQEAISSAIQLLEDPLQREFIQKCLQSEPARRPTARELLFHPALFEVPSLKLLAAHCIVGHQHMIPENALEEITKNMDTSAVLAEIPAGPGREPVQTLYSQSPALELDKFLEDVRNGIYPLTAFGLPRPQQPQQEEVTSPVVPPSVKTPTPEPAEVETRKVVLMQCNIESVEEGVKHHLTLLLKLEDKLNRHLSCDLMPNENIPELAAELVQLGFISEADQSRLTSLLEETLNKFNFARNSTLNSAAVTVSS
# UniProt Q15653: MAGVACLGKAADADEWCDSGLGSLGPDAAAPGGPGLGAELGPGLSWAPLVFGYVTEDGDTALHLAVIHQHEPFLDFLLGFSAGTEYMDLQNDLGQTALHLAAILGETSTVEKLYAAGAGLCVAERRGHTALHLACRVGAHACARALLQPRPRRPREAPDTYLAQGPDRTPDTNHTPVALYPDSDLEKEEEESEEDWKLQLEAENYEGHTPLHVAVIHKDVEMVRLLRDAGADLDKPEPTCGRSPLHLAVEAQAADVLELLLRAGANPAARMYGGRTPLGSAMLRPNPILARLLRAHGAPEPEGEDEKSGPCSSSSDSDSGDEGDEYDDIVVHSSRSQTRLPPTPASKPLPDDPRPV
# UniProt Q9BYT8, whole entry, looked up: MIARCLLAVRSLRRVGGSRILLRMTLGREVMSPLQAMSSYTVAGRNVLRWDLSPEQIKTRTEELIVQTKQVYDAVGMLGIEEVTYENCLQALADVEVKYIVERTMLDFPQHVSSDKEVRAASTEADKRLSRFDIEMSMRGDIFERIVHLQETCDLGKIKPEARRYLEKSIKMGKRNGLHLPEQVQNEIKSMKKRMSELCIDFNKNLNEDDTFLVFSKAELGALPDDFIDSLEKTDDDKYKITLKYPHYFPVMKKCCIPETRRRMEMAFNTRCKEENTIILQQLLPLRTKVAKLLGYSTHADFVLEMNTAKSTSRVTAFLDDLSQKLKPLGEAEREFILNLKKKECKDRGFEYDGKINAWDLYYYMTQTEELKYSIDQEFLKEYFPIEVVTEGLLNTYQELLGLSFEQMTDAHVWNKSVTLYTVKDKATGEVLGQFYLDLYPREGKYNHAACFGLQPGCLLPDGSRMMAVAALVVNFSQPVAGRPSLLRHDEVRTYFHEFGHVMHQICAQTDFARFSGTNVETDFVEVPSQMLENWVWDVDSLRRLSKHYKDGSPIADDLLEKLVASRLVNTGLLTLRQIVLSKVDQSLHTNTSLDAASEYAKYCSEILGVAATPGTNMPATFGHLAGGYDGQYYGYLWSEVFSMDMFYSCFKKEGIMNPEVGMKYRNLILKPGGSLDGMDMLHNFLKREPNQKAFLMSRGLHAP
# UniProt Q9BPW8: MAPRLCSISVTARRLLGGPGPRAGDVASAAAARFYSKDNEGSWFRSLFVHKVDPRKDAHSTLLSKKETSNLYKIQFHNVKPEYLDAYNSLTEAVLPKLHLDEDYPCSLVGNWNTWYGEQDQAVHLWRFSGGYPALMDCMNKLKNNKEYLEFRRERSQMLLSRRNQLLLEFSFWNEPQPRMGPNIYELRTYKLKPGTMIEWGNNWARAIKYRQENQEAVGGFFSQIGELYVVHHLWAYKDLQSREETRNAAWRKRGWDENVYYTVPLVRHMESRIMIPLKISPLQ
# UniProt Q9H9Q4: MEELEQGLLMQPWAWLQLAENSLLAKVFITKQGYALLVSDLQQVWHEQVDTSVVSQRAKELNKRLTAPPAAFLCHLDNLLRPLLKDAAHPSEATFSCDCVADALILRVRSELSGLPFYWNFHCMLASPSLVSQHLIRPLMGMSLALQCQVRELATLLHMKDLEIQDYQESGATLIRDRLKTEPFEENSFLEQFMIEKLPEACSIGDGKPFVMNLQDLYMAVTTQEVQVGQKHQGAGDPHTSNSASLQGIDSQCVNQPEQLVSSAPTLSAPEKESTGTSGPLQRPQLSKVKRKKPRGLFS
# UniProt Q96TA1: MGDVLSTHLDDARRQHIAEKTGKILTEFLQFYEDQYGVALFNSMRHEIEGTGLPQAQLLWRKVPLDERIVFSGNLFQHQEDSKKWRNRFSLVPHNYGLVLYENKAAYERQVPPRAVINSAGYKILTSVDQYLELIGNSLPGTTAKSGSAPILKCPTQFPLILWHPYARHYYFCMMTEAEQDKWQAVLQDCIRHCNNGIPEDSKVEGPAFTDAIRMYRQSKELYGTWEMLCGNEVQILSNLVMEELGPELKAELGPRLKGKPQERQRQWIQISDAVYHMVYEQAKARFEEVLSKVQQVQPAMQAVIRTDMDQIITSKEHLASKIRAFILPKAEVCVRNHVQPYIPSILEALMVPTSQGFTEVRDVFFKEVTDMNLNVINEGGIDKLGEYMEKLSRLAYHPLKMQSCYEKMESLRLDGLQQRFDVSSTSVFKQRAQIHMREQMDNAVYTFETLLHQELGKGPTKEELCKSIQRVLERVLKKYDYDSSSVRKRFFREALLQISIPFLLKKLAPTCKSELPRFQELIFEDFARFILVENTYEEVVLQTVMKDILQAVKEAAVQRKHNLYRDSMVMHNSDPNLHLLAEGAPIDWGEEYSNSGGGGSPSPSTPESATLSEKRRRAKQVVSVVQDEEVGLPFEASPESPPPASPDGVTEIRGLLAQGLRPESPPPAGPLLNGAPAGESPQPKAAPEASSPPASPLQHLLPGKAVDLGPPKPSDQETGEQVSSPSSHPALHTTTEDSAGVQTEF
# UniProt Q16621: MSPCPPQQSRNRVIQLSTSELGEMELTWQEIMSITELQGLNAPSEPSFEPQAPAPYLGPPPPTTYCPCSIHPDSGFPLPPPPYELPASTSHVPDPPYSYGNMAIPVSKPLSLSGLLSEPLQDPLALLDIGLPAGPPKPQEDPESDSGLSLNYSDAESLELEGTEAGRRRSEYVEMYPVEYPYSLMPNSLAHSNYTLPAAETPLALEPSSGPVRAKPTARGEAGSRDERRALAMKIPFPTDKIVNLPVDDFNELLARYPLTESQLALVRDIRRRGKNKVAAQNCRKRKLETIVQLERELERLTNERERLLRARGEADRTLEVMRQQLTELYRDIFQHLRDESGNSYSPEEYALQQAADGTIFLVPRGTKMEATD
# UniProt O00567: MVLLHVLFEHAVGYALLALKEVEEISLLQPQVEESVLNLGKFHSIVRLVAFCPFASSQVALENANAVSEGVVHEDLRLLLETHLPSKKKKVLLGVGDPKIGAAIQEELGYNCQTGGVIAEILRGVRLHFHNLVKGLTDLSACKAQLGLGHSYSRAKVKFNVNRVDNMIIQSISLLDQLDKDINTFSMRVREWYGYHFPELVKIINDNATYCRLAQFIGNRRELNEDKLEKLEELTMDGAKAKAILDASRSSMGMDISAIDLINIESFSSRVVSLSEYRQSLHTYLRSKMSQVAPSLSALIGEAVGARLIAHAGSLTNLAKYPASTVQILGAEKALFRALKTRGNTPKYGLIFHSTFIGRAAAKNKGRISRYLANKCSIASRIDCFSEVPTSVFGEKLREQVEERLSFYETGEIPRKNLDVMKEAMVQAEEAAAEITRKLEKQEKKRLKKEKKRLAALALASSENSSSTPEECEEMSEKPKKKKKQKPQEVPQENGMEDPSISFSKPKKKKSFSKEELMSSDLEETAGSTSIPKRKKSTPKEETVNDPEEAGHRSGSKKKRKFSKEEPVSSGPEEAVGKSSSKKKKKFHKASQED
# UniProt Q9UMX5: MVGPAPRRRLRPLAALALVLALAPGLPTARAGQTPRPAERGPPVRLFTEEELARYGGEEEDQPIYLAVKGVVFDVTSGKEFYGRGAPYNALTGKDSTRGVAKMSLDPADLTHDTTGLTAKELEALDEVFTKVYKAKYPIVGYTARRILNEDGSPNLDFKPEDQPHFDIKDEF
# UniProt O15118: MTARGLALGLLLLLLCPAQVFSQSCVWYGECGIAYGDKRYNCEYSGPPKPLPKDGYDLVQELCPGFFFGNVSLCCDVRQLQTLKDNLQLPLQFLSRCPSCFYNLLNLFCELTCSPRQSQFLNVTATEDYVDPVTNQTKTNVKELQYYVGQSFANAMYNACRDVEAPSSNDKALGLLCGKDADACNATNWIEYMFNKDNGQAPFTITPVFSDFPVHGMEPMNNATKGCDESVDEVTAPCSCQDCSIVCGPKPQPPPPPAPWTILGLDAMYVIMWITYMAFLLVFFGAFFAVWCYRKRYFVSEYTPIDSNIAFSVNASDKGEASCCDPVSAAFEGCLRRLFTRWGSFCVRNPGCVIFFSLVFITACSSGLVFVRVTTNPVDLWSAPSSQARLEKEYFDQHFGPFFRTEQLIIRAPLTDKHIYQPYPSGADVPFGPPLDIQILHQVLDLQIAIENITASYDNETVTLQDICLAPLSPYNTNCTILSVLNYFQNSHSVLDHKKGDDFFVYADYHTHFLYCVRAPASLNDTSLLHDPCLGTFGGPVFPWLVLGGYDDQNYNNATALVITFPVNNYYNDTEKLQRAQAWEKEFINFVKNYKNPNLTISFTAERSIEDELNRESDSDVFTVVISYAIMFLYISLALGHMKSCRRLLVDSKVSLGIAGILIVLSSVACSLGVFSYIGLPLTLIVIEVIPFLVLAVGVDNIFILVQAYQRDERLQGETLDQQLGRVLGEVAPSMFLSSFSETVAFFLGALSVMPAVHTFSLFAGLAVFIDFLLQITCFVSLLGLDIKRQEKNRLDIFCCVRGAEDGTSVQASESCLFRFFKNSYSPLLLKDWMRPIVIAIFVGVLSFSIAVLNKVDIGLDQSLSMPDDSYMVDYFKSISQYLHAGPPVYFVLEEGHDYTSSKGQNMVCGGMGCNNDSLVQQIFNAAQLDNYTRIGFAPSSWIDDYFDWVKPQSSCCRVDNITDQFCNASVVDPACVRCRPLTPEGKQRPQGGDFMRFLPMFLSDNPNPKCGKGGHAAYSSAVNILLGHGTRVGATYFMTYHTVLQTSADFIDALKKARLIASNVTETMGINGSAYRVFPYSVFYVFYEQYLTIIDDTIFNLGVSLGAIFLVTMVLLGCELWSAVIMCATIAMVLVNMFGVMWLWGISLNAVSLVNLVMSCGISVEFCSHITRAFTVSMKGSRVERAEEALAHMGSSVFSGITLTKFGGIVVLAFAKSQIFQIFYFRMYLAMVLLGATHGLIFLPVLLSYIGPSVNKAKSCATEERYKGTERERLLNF
# Assays:
# Experiment in all cases: log2 fold change, soluble protein after heating vs DMSO (PISA); higher = thermal stabilisation; K562 cells, 10 uM, 30 min; active = over 0.2 and 3.5 SD of the protein, either way, in both replicates (recomputed)
# [1] = compound: COC1=CC=C(C=C1)CN2C=CC3=C2C=C(C=C3)C(=O)NO
# In short: (§1)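 For each measurement, 10 μM compound was applied for 30 min to K562 cells at 2×10^6 cells/mL. Aliquots were heated for 3 min across 48°C-58°C, pooled, and extracted in PBS with 0.5% NP-40 at 4°C; the supernatant after 21,000xg for 90 min was soluble protein. This was quantified by TMTpro 16plex LC-MS/MS with channel sums equalised, and thermal stability was reported relative to control samples from duplicates, on a log2 fold-change scale.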
# [2] = compound: CON(C)C(=O)N1N=C(c2cc(F)ccc2F)S[C@@]1(CCCN)c1ccccc1 [filanesib]
# In short: as §1
# [3] = compound: CO[C@H]1C[C@@H]2CC[C@@H](C)[C@@](O)(O2)C(=O)C(=O)N2CCCC[C@H]2C(=O)O[C@H]([C@H](C)C[C@@H]2CC[C@H](n3cnnn3)[C@H](OC)C2)CC(=O)[C@H](C)/C=C(\C)[C@@H](O)[C@@H](OC)C(=O)[C@H](C)C[C@H](C)/C=C/C=C/C=C/1C [zotarolimus]
# In short: as §1
# [4] = compound: COc1cc(C(=O)O)ccc1NC(=O)[C@@H]1N[C@@H](CC(C)(C)C)[C@](C#N)(c2ccc(Cl)cc2F)[C@H]1c1cccc(Cl)c1F [idasanutlin]
# In short: as §1
# [5] = compound: COc1cc(Nc2ncc3c(n2)-c2ccc(Cl)cc2C(c2c(F)cccc2OC)=NC3)ccc1C(=O)O [alisertib]
# In short: as §1
# [6] = compound: COc1cc2nc(-c3cc(F)ccc3O)nc(N[C@@H]3CNC[C@H]3C(C)(C)O)c2cc1OC
# In short: as §1
# [7] = compound: COc1cc2ncnc(Nc3ccc(F)c(Cl)c3)c2cc1OCCCN1CCOCC1 [gefitinib]
# In short: as §1
# [8] = compound: COc1cccc2cc(-c3nc([C@H]4CC[C@H](C(=O)O)CC4)n4ncnc(N)c34)[nH]c12
# In short: as §1
# [9] = compound: CS(=O)(=O)CCNCc1ccc(-c2ccc3ncnc(Nc4ccc(OCc5cccc(F)c5)c(Cl)c4)c3c2)o1 [lapatinib]
# In short: as §1
# [10] = compound: CS(=O)(=O)N1CCN(Cc2cc3nc(-c4cccc5[nH]ncc45)nc(N4CCOCC4)c3s2)CC1 [pictilisib]
# In short: as §1
# [11] = compound: CS(=O)(=O)c1ccc(-c2cnc(N)c(C(=O)Nc3ccccc3)n2)cc1
# In short: as §1
# [12] = compound: C[C@@H](Oc1cc(-c2cnn(C3CCNCC3)c2)cnc1N)c1c(Cl)ccc(F)c1Cl [crizotinib]
# In short: as §1
# [13] = compound: C[C@@H]1COCCN1C2=NC(=NC(=C2)C3(CC3)S(=O)(=O)C)C4=C5C=CNC5=CC=C4
# In short: as §1
# [14] = compound: C[C@H](C1=CC=C(C=C1)C(=O)NC2=C3C=CNC3=NC=C2)N
# In short: as §1
# [15] = compound: Cc1cc(Nc2cc(CN3CCOCC3)c3nc(C)c(Cc4ccc(Cl)cc4F)n3n2)n[nH]1 [gandotinib]
# In short: as §1
# [16] = compound: Cc1cc(SCc2sc(-c3ccc(C(F)(F)F)cc3)nc2C)ccc1OCC(=O)O
# In short: as §1
# [17] = compound: Cc1ccc(-n2nc(C(C)(C)C)cc2NC(=O)Nc2ccc(OCCN3CCOCC3)c3ccccc23)cc1 [doramapimod]
# In short: as §1
# [18] = compound: Cc1ccc(C(=O)N(CCCN)[C@@H](c2nc3cc(Cl)ccc3c(=O)n2Cc2ccccc2)C(C)C)cc1 [ispinesib]
# In short: as §1
# [19] = compound: C[C@H](Nc1ncnc2nc[nH]c12)c1cc2cccc(Cl)c2c(=O)n1-c1ccccc1 [duvelisib]
# In short: as §1
# [20] = compound: Cc1cc(Nc2cc(N3CCN(C)CC3)nc(Sc3ccc(NC(=O)C4CC4)cc3)n2)n[nH]1 [tozasertib]
# In short: as §1
Target,log2 fold change [1],log2 fold change [2],log2 fold change [3],log2 fold change [4],log2 fold change [5],log2 fold change [6],log2 fold change [7],log2 fold change [8],log2 fold change [9],log2 fold change [10],log2 fold change [11],log2 fold change [12],log2 fold change [13],log2 fold change [14],log2 fold change [15],log2 fold change [16],log2 fold change [17],log2 fold change [18],log2 fold change [19],log2 fold change [20]
NFYC (UniProt Q13952),inactive: -0.026,inactive: -0.023,inactive: 0.004,inactive: -0.065,inactive: -0.036,inactive: 0.017,inactive: -0.018,inactive: 0.127,inactive: 0.033,inactive: 0.092,inactive: 0.022,inactive: 0.013,inactive: 0.054,inactive: 0.005,inactive: 0.002,inactive: 0.027,inactive: 0.001,inactive: 0.089,–,–
NME1 isoform 2 (UniProt P15531),inactive: 0.017,inactive: 0.007,inactive: 0.001,inactive: 0.022,inactive: 0.062,inactive: 0.021,inactive: -0.063,inactive: 0.141,inactive: -0.009,active: 0.666,inactive: 0.013,inactive: 0.012,inactive: 0.161,inactive: 0.01,inactive: -0.144,inactive: 0.195,inactive: -0.015,inactive: 0,–,–
NPEPPS (UniProt P55786),active: 0.22,inactive: -0.056,active: 0.338,inactive: -0.072,inactive: -0.017,inactive: 0.037,inactive: -0.026,inactive: 0.066,inactive: -0.002,inactive: -0.001,inactive: 0.019,inactive: -0.14,inactive: 0.122,inactive: -0.039,inactive: -0.03,inactive: -0.012,inactive: 0.013,inactive: 0.082,–,–
NRF1 isoform 4 (UniProt Q16656),inactive: 0.048,inactive: -0.054,inactive: 0.098,inactive: 0.03,inactive: -0.077,inactive: -0.135,inactive: 0.03,inactive: 0.019,inactive: -0.078,inactive: 0.167,inactive: 0.03,inactive: 0.071,inactive: 0.275,inactive: -0.107,inactive: -0.125,inactive: 0.017,inactive: -0.003,inactive: -0.004,–,–
NME2 isoform 2 (UniProt P22392),inactive: -0.014,inactive: -0.012,inactive: -0.029,inactive: -0.017,inactive: -0.041,inactive: 0.035,inactive: -0.011,inactive: 0.086,inactive: -0.047,inactive: 0.063,inactive: 0.001,inactive: 0.035,inactive: 0.049,inactive: 0.002,inactive: 0.011,inactive: -0.042,inactive: -0.004,inactive: 0.017,inactive: 0.045,inactive: -0.03
NRBP1 (UniProt Q9UHY1),inactive: 0.011,inactive: -0.034,inactive: 0.008,inactive: -0.025,inactive: -0.024,inactive: -0.013,inactive: -0.023,inactive: 0.006,inactive: 0.012,inactive: 0.008,inactive: 0.032,inactive: 0.016,inactive: 0.022,inactive: -0.076,inactive: -0.039,inactive: -0.004,inactive: 0.008,inactive: 0.035,inactive: -0.017,inactive: 0.067
NFKBIB (UniProt Q15653),inactive: 0.06,inactive: 0.007,inactive: 0.053,inactive: -0.064,inactive: -0.098,inactive: -0.005,inactive: -0.008,inactive: -0.037,inactive: 0.005,inactive: -0.006,inactive: 0.066,inactive: -0.008,inactive: 0.053,inactive: -0.014,inactive: -0.038,inactive: 0.06,inactive: -0.013,inactive: -0.055,inactive: 0.002,inactive: 0.075
NLN (UniProt Q9BYT8),inactive: 0.063,inactive: -0.075,inactive: 0.015,inactive: -0.036,inactive: -0.061,inactive: -0.01,inactive: -0.002,inactive: 0.032,inactive: -0.032,inactive: 0.009,inactive: -0.014,inactive: -0.007,inactive: 0.013,inactive: -0.028,inactive: 0.037,inactive: -0.009,inactive: -0.058,inactive: -0.014,inactive: 0.062,inactive: -0.05
NIPSNAP1 (UniProt Q9BPW8),inactive: 0.17,inactive: -0.001,inactive: 0.054,inactive: -0.071,inactive: -0.125,inactive: 0.005,inactive: 0.071,inactive: 0.087,inactive: 0.073,inactive: 0.236,inactive: 0.056,inactive: 0.035,inactive: 0.146,inactive: -0.084,inactive: 0.117,inactive: 0.079,inactive: -0.052,inactive: 0.131,inactive: 0.049,inactive: -0.046
NHEJ1 (UniProt Q9H9Q4),inactive: -0.215,inactive: -0.009,inactive: -0.004,inactive: -0.168,inactive: 0.094,inactive: -0.183,inactive: 0.018,inactive: 0.108,inactive: 0.218,inactive: -0.147,inactive: -0.001,inactive: -0.122,inactive: 0.02,inactive: -0.16,inactive: -0.063,inactive: 0.082,inactive: 0.098,inactive: 0.091,inactive: -0.096,inactive: 0.13
NOP53 (UniProt Q9NZM5),inactive: -0.111,inactive: 0.533,inactive: -0.008,inactive: 0.365,inactive: -0.1,inactive: 0.037,inactive: -0.127,inactive: -0.207,inactive: 0.163,inactive: -0.335,inactive: -0.116,inactive: 0.029,inactive: -0.019,inactive: 0.638,inactive: 0.377,inactive: -0.027,inactive: 0.277,inactive: 0.015,–,–
NIBAN2 (UniProt Q96TA1),inactive: -0.057,inactive: 0.011,inactive: -0.016,inactive: -0.011,inactive: -0.04,inactive: 0.072,inactive: 0.016,inactive: 0.004,inactive: -0.019,inactive: 0.05,inactive: 0.022,inactive: 0.017,inactive: 0.065,inactive: -0.05,inactive: -0.05,inactive: -0.017,inactive: -0.021,inactive: 0.048,inactive: 0.022,inactive: -0.048
NFE2 (UniProt Q16621),inactive: 0.135,inactive: 0,inactive: 0.146,inactive: 0.023,inactive: -0.056,inactive: -0.032,inactive: -0.008,inactive: 0.014,inactive: 0.007,inactive: 0.05,inactive: -0.006,inactive: -0.052,inactive: -0.001,inactive: -0.031,inactive: -0.091,inactive: -0.015,inactive: 0.049,inactive: 0.033,–,–
NOP56 (UniProt O00567),inactive: -0.083,active: 0.605,inactive: 0.136,inactive: 0.345,inactive: 0.007,inactive: 0.045,inactive: -0.046,inactive: -0.078,inactive: 0.098,inactive: 0.013,inactive: -0.101,inactive: -0.103,inactive: -0.338,inactive: 0.285,inactive: 0.064,inactive: 0,inactive: 0.178,inactive: 0.162,–,–
NENF (UniProt Q9UMX5),inactive: -0.023,inactive: -0.031,inactive: -0.026,inactive: -0.064,inactive: -0.029,inactive: 0.061,inactive: 0.034,inactive: 0.012,inactive: -0.024,inactive: -0.007,inactive: -0.023,inactive: 0.086,inactive: 0.058,inactive: 0.004,inactive: 0.005,inactive: -0.028,inactive: -0.002,inactive: 0.009,inactive: 0.062,inactive: -0.002
NOMO2 (UniProt Q5JPE7),inactive: -0.006,inactive: -0.025,inactive: 0.024,inactive: -0.031,inactive: -0.058,inactive: -0.035,inactive: -0.002,inactive: -0.003,inactive: 0.002,inactive: 0.125,inactive: -0.006,inactive: 0.001,inactive: -0.021,inactive: 0.017,inactive: -0.026,inactive: 0.017,inactive: 0.02,inactive: -0.048,inactive: -0.013,inactive: 0.019
NPC1 (UniProt O15118),inactive: 0.04,inactive: -0.12,inactive: -0.038,inactive: 0.025,inactive: -0.067,inactive: 0.035,inactive: -0.027,inactive: 0.057,inactive: 0.026,inactive: 0,inactive: 0.016,inactive: -0.132,inactive: 0.024,inactive: -0.102,inactive: 0.015,inactive: -0.038,inactive: -0.087,inactive: -0.148,–,–

# Not a retest: entries from further up.
Target,log2 fold change [1],log2 fold change [2],log2 fold change [3],log2 fold change [4],log2 fold change [5],log2 fold change [6],log2 fold change [7],log2 fold change [8],log2 fold change [9],log2 fold change [10],log2 fold change [11],log2 fold change [12],log2 fold change [13],log2 fold change [14],log2 fold change [15],log2 fold change [16],log2 fold change [17],log2 fold change [18],log2 fold change [19],log2 fold change [20]
NRF1 isoform 4 (UniProt Q16656),inactive: 0.048,inactive: -0.054,inactive: 0.098,inactive: 0.03,inactive: -0.077,inactive: -0.135,inactive: 0.03,inactive: 0.019,inactive: -0.078,inactive: 0.167,inactive: 0.03,inactive: 0.071,inactive: 0.275,inactive: -0.107,inactive: -0.125,inactive: 0.017,inactive: -0.003,inactive: -0.004,–,–
NME2 isoform 2 (UniProt P22392),inactive: -0.014,inactive: -0.012,inactive: -0.029,inactive: -0.017,inactive: -0.041,inactive: 0.035,inactive: -0.011,inactive: 0.086,inactive: -0.047,inactive: 0.063,inactive: 0.001,inactive: 0.035,inactive: 0.049,inactive: 0.002,inactive: 0.011,inactive: -0.042,inactive: -0.004,inactive: 0.017,inactive: 0.045,inactive: -0.03
NRBP1 (UniProt Q9UHY1),inactive: 0.011,inactive: -0.034,inactive: 0.008,inactive: -0.025,inactive: -0.024,inactive: -0.013,inactive: -0.023,inactive: 0.006,inactive: 0.012,inactive: 0.008,inactive: 0.032,inactive: 0.016,inactive: 0.022,inactive: -0.076,inactive: -0.039,inactive: -0.004,inactive: 0.008,inactive: 0.035,inactive: -0.017,inactive: 0.067
NFKBIB (UniProt Q15653),inactive: 0.06,inactive: 0.007,inactive: 0.053,inactive: -0.064,inactive: -0.098,inactive: -0.005,inactive: -0.008,inactive: -0.037,inactive: 0.005,inactive: -0.006,inactive: 0.066,inactive: -0.008,inactive: 0.053,inactive: -0.014,inactive: -0.038,inactive: 0.06,inactive: -0.013,inactive: -0.055,inactive: 0.002,inactive: 0.075
